According to publication PMC7019167, “Development of a high affinity Anticalin® directed against human CD98hc for theranostic applications” (Theranostics, 2020):
These are yes or no findings as the source states them, for the method shown. Some results given as binding are weak or reduced against the parent protein; the word gives no strength.

Protein sequences, listed by entry. Tags and fused reporters are not part of them. Residues count along the entry.
UniProt P08195, residues 212-630: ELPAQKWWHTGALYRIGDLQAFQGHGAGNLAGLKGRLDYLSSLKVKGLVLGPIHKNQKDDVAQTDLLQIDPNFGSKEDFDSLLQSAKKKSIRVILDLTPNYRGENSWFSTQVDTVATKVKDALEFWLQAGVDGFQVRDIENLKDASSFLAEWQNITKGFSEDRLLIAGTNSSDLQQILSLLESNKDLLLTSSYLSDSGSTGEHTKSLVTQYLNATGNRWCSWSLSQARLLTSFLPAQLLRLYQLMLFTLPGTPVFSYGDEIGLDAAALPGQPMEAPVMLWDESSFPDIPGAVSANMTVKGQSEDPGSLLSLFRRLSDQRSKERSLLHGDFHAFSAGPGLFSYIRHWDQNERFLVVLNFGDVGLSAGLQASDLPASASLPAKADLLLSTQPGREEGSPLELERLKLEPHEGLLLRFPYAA

B1: recombinant wild type lipocalin 2 (wtLcn2), soluble, P80188 21-198 (protein)
chain: QDSTSDLIPAPPLSKVPLQQNFQDNQFQGKWYVVGLAGNAILREDKDPQKMYATIYELKEDKSYNVTSVLFRKKKCDYWIRTFVPGCQPGEFTLGNIKSYPGLTSYLVRVVSTNYNQHAMVFFKKVSQNREYFKITLYGRTKELTSELKENFIRFSKSLGLPENHIVFPVPIDQCIDG

Columns and labels:
[1] = biological target: lipocalin variant D11.4 displayed on E. coli (human) (UniProt P80188); experiment: flow cytometry on cells; single clone FACS of E. coli displaying the lipocalin variant (EspP fusion) after six BSD selection cycles, incubated with 1 nM biotinylated hCD98hcED; detection with streptavidin/phycoerythrin; mean PE fluorescence; only the binder purified
[2] = biological target: lipocalin variant D11.7 displayed on E. coli (human) (UniProt P80188); experiment: as above
[3] = biological target: lipocalin variant D11.9 displayed on E. coli (human) (UniProt P80188); experiment: as above
[4] = biological target: T1, recombinant wild type lipocalin 2 (wtLcn2), soluble (human), P80188; experiment: SEC; analytical SEC of the purified soluble lipocalin variants in comparison with wtLcn2; both purified; details: remark: other sources report otherwise
T1 chain: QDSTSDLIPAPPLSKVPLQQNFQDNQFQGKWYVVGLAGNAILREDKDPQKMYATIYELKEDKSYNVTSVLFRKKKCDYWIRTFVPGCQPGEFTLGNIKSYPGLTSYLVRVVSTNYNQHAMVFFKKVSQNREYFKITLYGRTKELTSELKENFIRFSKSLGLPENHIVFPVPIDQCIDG

Row | Molecule | binding [1] | binding [2] | binding [3] | binding [4]
1 | unglycosylated human CD98hc ectodomain (hCD98hcED), monobiotinylated (from UniProt P08195-2 111-529) (domain or fragment) | binds | binds | binds | 
2 | B1 |  |  |  | no binding
